# Test results: patent publication US9067968B2 (The Regents of the University of Colorado, a body corporate, priority 2007, dated 2015)
# Experiment: general procedure: Fmoc solid-phase peptide synthesis; pre-loaded Fmoc-D-Cys-Wang resin, 0.5 mmol/g (all D-form peptide); DIC/HOBt
# Details: whole synthesis
substance,measurement,value
"cyclic H-CLYHYC-OH (flanking Cys, cyclised; TJ Protein Modulator 1)",final purity (method not given),95%
